PMC8569672
No constants are given. Whether binding was seen depends on the method and setting. In cells and extracts the contact can be indirect. Some entries that bind do so weakly or less than the wild type.

Chains of the proteins cited; added tags and fusions are not shown.
UniProt Q3TKT4: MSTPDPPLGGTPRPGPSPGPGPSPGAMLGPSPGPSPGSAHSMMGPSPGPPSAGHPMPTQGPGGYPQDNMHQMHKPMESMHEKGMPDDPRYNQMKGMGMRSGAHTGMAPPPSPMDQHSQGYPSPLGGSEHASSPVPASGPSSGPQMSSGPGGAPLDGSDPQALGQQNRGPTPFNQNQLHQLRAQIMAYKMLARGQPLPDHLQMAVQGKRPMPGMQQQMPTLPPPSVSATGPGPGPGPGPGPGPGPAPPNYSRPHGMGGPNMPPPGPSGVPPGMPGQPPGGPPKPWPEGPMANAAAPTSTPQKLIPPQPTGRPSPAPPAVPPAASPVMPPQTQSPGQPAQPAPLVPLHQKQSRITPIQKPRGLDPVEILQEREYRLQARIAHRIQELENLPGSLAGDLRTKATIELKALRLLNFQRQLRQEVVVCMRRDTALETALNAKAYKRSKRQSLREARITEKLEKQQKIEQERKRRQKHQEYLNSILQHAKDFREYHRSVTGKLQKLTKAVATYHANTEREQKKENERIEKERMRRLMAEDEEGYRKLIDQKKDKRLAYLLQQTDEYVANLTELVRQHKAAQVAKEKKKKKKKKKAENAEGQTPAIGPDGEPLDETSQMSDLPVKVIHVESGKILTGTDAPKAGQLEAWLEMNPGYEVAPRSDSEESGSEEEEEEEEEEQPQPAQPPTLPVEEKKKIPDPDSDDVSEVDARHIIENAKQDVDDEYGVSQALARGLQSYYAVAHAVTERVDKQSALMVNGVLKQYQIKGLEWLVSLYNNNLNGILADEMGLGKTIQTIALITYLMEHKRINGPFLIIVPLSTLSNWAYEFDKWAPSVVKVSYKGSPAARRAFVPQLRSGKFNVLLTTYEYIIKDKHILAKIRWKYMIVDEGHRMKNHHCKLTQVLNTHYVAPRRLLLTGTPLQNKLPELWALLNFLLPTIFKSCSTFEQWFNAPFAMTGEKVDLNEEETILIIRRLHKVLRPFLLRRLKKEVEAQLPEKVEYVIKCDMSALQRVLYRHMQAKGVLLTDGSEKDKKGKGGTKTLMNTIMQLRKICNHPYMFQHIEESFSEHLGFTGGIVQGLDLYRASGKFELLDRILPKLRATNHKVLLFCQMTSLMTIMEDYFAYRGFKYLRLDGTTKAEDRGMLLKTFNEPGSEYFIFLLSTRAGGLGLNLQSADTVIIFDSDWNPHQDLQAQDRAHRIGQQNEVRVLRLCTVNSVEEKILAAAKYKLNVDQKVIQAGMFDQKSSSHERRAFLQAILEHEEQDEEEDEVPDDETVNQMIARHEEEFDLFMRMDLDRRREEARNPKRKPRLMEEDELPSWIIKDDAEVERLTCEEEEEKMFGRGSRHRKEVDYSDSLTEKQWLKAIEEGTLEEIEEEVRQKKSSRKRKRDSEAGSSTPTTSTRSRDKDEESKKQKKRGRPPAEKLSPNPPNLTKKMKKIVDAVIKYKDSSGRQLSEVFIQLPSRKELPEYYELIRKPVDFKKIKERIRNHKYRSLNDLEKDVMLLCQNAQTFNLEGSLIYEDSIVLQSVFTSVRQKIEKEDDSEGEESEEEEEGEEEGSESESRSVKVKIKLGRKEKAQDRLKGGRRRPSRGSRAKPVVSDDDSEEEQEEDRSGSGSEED
UniProt Q61502: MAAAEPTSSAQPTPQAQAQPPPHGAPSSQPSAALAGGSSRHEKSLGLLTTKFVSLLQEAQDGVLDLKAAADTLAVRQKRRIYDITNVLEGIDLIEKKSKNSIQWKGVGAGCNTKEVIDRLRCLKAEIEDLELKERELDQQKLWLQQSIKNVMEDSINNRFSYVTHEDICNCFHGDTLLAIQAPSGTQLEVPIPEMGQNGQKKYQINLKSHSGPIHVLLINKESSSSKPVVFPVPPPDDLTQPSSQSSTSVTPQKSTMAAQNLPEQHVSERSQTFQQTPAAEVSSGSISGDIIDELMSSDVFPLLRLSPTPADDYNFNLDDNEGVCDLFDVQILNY

Target: Brahma-related gene 1 (BRG1) (mouse (endogenous in primary murine hepatocytes)) (UniProt Q3TKT4)
Test: co-IP; immunoprecipitation with anti-BRG1 or IgG from primary murine hepatocyte lysates

binding | Molecule
binds | E2F5 (from UniProt Q61502 1-335)
binds | TFDP1 (protein, UniProt Q08639 1-410) MAKDASLIEANGELKVFIDQNLSPGKGVVSLVAVHPSTVNTLGKQLLPKTFGQSNVNITQQVVIGTPQRPAASNTIVVGSPHTPNTHFVSQNQTSDSSPWSAGKRNRKGEKNGKGLRHFSMKVCEKVQRKGTTSYNEVADELVAEFSAADNHILPNESAYDQKNIRRRVYDALNVLMAMNIISKEKKEIKWIGLPTNSAQECQNLEVERQRRLERIKQKQSQLQELILQQIAFKNLVQRNRQAEQQARRPPPPNSVIHLPFIIVNTSRKTVIDCSISNDKFEYLFNFDNTFEIHDDIEVLKRMGMACGLESGNCSAEDLKVARSLVPKALEPYVTEMAQGSIGGVFVTTTGSTSNGTRLSASDLSNGADGMLATSSNGSQYSGSRVETPVSYVGEDDDDDDDFNENDEED
